Data on 22 targets can be found in the supplement of paper PMC6411743.

Chains of the proteins cited; added tags and fusions are not shown. Lines headed by an entry give the natural chain unless they say otherwise; changes in a name come on top.
UniProt Q96SN8: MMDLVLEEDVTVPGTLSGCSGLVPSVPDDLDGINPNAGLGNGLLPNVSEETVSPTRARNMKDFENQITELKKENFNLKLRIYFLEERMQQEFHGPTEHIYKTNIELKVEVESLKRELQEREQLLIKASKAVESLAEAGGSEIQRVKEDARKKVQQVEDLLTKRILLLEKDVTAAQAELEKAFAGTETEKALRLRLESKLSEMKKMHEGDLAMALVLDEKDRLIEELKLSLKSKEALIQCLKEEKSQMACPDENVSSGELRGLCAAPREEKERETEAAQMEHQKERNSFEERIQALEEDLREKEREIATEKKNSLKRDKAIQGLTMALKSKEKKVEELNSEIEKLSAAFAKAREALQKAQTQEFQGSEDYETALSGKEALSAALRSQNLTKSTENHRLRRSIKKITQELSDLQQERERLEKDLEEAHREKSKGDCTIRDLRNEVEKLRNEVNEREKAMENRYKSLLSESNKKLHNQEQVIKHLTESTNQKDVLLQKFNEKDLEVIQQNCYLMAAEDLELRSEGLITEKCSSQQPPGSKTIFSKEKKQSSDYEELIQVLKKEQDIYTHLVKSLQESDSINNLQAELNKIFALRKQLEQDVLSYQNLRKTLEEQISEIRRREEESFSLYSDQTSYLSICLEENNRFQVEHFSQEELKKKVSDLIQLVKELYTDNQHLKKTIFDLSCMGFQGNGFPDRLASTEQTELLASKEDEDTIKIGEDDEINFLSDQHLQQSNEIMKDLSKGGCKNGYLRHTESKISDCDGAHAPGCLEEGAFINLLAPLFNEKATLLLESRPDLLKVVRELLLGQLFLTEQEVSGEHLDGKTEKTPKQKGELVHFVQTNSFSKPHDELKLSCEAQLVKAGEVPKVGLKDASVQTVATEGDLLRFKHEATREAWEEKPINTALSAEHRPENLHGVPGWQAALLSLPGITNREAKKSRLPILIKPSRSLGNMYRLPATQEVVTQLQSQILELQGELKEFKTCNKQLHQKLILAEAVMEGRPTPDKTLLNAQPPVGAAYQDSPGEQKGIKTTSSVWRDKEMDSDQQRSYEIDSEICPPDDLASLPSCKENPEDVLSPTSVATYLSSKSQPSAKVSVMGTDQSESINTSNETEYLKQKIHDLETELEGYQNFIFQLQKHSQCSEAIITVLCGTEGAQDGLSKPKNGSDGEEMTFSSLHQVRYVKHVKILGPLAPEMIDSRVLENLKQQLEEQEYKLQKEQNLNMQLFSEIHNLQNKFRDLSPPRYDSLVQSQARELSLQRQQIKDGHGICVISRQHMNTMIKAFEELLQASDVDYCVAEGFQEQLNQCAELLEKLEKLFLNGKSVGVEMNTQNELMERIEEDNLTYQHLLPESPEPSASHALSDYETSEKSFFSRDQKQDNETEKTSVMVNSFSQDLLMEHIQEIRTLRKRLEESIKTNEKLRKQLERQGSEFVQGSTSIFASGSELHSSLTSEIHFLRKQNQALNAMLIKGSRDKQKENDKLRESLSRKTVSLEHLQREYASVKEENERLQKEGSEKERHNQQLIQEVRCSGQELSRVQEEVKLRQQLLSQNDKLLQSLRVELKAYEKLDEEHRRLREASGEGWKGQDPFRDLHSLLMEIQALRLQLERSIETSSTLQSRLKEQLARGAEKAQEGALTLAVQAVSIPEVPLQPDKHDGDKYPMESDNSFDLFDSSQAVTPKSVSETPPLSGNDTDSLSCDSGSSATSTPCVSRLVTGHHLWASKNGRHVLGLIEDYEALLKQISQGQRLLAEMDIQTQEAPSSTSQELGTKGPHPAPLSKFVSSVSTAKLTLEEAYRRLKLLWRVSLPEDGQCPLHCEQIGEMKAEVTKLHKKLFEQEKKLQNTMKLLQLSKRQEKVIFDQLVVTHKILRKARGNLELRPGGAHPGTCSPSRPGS
UniProt Q9BUH6, whole entry: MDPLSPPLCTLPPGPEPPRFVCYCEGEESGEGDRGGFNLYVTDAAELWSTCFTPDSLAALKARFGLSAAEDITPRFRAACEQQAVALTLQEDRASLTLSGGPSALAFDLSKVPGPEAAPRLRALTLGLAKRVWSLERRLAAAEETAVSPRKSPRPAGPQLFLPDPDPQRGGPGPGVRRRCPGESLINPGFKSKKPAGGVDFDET
UniProt Q9BU23: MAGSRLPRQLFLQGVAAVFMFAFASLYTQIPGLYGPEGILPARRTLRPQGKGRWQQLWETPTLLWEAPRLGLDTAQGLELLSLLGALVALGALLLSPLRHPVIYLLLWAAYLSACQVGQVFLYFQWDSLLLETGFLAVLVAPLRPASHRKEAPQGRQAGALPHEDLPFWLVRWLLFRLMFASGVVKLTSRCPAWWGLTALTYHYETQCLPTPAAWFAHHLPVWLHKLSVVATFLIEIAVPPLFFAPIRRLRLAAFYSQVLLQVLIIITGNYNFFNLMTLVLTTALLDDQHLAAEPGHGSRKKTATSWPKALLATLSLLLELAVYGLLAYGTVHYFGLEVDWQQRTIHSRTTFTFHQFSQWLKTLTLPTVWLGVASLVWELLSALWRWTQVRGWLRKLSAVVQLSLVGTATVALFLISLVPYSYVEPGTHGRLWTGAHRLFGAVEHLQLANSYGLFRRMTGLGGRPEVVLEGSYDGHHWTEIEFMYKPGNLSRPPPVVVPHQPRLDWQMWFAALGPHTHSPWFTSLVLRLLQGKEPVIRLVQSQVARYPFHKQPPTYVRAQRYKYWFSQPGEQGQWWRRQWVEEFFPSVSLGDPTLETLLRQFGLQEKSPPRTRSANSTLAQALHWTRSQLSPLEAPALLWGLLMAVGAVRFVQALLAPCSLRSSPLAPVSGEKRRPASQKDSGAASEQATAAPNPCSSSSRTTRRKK
UniProt Q9BYV8: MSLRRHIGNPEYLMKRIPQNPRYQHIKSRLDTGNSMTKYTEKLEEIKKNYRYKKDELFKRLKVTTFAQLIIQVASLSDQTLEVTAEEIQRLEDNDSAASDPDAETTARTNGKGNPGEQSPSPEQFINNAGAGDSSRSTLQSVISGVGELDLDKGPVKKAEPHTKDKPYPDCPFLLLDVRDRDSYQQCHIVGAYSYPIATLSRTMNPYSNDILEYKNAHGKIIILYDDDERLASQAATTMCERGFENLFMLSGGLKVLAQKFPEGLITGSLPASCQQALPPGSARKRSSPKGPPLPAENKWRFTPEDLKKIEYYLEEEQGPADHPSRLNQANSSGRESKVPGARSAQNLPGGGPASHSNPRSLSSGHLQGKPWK
UniProt Q9BPX7: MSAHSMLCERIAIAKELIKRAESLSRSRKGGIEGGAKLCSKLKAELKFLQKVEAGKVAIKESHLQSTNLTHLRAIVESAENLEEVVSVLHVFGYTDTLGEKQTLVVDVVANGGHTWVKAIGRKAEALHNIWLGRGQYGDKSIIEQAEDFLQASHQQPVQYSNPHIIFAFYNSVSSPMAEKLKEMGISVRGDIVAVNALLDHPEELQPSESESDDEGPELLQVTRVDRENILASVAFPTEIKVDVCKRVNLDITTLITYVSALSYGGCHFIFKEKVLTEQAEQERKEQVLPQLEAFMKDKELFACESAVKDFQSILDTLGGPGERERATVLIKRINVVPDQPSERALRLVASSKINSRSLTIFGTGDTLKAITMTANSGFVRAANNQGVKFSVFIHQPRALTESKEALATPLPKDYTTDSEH
UniProt Q96S94: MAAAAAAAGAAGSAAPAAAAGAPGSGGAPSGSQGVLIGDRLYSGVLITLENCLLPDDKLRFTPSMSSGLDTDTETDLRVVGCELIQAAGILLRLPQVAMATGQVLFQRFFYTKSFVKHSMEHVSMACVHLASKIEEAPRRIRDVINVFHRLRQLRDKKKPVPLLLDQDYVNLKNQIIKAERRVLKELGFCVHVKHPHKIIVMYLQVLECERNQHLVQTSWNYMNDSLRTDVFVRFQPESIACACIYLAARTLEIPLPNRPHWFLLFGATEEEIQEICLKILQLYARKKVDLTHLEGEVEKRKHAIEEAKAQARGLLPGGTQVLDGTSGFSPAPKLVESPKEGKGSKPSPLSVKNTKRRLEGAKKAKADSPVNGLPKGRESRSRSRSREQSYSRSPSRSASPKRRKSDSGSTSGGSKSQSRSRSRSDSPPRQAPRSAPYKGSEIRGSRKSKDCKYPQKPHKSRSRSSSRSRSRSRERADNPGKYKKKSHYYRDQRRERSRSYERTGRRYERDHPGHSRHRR
UniProt Q96RN5: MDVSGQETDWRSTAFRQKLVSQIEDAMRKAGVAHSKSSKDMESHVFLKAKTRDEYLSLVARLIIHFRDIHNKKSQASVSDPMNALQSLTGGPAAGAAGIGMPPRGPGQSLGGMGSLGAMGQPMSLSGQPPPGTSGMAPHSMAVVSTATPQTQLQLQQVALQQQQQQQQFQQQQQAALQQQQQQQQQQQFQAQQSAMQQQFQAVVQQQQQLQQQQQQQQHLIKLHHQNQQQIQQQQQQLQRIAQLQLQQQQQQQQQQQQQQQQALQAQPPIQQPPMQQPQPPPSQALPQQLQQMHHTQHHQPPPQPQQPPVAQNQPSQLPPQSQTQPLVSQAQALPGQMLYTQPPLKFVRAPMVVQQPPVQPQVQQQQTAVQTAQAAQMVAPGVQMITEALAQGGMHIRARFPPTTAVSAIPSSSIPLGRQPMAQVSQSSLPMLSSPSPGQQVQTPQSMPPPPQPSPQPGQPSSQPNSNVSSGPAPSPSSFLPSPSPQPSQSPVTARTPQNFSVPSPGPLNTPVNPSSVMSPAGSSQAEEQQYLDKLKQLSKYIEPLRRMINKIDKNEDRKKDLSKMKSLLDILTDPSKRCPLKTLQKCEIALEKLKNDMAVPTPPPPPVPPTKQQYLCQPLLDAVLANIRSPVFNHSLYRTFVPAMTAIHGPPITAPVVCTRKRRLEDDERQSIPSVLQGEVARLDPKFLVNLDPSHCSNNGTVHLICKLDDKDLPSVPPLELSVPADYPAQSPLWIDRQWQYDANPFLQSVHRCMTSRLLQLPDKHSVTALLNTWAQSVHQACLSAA
UniProt Q9BWS9: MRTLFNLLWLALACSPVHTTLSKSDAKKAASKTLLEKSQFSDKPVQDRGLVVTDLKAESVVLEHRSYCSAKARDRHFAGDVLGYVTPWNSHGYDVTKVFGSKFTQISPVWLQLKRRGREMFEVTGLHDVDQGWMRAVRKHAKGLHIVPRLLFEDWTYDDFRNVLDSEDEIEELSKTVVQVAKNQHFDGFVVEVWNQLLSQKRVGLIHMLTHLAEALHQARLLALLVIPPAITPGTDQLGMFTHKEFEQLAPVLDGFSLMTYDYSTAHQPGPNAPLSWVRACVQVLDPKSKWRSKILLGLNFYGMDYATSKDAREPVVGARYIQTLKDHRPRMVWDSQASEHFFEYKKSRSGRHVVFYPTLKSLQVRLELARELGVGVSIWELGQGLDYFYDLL
UniProt Q96RS0: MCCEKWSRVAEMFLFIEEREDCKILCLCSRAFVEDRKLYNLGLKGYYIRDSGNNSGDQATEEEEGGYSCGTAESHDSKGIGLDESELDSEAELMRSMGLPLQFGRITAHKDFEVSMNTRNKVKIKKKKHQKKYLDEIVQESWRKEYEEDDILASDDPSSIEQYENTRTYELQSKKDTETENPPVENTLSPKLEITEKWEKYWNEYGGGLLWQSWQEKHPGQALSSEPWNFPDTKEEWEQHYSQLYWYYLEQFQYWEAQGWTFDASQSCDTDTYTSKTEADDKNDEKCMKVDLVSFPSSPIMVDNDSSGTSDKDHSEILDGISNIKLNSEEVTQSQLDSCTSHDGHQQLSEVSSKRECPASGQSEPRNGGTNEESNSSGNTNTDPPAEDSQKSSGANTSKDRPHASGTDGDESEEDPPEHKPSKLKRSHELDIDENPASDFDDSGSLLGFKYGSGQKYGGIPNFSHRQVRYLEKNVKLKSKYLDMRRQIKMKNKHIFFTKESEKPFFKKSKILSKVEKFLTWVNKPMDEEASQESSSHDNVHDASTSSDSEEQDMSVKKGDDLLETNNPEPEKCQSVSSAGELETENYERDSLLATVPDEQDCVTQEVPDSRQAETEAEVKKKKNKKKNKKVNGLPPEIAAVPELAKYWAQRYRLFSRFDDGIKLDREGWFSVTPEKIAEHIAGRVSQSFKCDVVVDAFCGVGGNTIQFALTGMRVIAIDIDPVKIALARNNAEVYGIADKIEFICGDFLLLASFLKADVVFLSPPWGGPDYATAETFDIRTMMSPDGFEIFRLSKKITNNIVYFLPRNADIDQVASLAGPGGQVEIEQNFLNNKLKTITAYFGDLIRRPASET
UniProt Q9BTL3: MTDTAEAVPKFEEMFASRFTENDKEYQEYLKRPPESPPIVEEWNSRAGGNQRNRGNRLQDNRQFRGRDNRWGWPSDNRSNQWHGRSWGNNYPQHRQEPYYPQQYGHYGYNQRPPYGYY
UniProt Q9BVW5: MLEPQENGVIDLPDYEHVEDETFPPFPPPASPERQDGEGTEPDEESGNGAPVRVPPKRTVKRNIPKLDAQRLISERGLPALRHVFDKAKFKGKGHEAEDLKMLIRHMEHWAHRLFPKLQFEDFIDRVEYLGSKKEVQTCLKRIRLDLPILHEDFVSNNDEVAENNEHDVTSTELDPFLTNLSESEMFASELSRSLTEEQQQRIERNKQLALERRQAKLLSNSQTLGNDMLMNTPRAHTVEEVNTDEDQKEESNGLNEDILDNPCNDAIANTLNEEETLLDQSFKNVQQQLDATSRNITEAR

± gives the standard deviation of the averaged measurements. The entries are a selection whose mix differs from that of the whole data set. Small differences around the control level are noise.

Compound in the assay: Nc1ncnc2c1ncn2[C@@H]1O[C@H](COP(=O)(O)OP(=O)(O)NP(=O)(O)O)[C@@H](O)[C@H]1O [adenylyl imidodiphosphate]
The experiment in a line: NP40-soluble protein abundance relative to vehicle (solubility fold change) (ratio); higher = more soluble protein in presence of AMP-PNP. An outline of the steps:
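Data come from three independent experiments in which Dounce-homogenised Jurkat crude lysate was treated at eight concentrations from 0.1 to 10 mM. Treatment ran 10 min at room temperature and then 3 min at 37 °C, after which 0.8% NP40 and benzonase were added for 60 min at 4 °C before ultracentrifugation. The supernatant underwent TMT labelling and LC-MS/MS, and vsn-normalised intensities were expressed as fold change against the detergent-processed vehicle in each replicate.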

Regarding UniProt Q96SN8 and related entries, the NP40-soluble protein abundance is 1.03 ± 0.032 (concentration: 0.1mM) and 1.02 ± 0.043 (concentration: 0.5mM).

As to RIOK1 (UniProt Q9BRS2), the NP40-soluble protein abundance (concentration: 0.1mM) stood at 0.928 ± 0.029 and the NP40-soluble protein abundance (concentration: 0.5mM) was determined as 0.9213 ± 0.0048.

Consider DDA1 (UniProt Q9BW61), for which the NP40-soluble protein abundance was determined as 1.02 ± 0.039 (concentration: 0.1mM) and 1.03 ± 0.02 (concentration: 0.5mM).

In the case of HDHD3 (UniProt Q9BSH5), the NP40-soluble protein abundance is 1.049 ± 0.005 (concentration: 0.1mM) and 1.01 ± 0.016 (concentration: 0.5mM).

On to UniProt Q9BYD6 and related entries, for which the NP40-soluble protein abundance by setting is: (concentration: 0.1mM) 1.04 ± 0.097; (concentration: 0.5mM) 1.06 ± 0.023.

For the target UniProt Q9BUH6, the NP40-soluble protein abundance runs as follows: (concentration: 0.1mM) 1.01 ± 0.011; (concentration: 0.5mM) 1.04 ± 0.019.

UniProt Q96TA1 and related entries: the NP40-soluble protein abundance is 0.981 ± 0.029 (concentration: 0.1mM) and 0.95 ± 0.024 (concentration: 0.5mM).

As to UniProt Q9BU23 and related entries, the NP40-soluble protein abundance (concentration: 0.1mM) came to 0.9764 ± 0.0013 and the NP40-soluble protein abundance (concentration: 0.5mM) is 0.995 ± 0.039.

In the case of UniProt Q9BYV8, the NP40-soluble protein abundance reads like this: (concentration: 0.1mM) 0.947 ± 0.024; (concentration: 0.5mM) 0.9776 ± 0.0072.

As for UniProt Q9BPX7 and related entries, the NP40-soluble protein abundance (concentration: 0.1mM) was 0.9945 ± 0.0032 and the NP40-soluble protein abundance (concentration: 0.5mM) was found to be 1.04 ± 0.043.

Regarding KATNB1 (UniProt Q9BVA0), the NP40-soluble protein abundance (concentration: 0.1mM) was 1.02 ± 0.021 and the NP40-soluble protein abundance (concentration: 0.5mM) worked out at 0.998 ± 0.017.

As for TSG101 (UniProt Q99816), the NP40-soluble protein abundance came to 0.987 ± 0.016 (concentration: 0.1mM) and 1 ± 0.025 (concentration: 0.5mM).

In the case of CCNL2 (UniProt Q96S94), the NP40-soluble protein abundance is, setting by setting: (concentration: 0.1mM) 0.99 ± 0.02; (concentration: 0.5mM) 0.964 ± 0.03.

Regarding UniProt Q9BZ23 and related entries, the NP40-soluble protein abundance by setting is: (concentration: 0.1mM) 0.99 ± 0.015; (concentration: 0.5mM) 0.986 ± 0.022.

In the case of UniProt Q96RF0-2, the NP40-soluble protein abundance is, setting by setting: (concentration: 0.1mM) 1.013 ± 0.0017; (concentration: 0.5mM) 1.02 ± 0.023.

UniProt Q96RN5 and related entries: the NP40-soluble protein abundance (concentration: 0.1mM) came out at 1.02 ± 0.062 and the NP40-soluble protein abundance (concentration: 0.5mM) amounted to 0.985 ± 0.035.

For the target UniProt Q9BWS9 and related entries, the NP40-soluble protein abundance (concentration: 0.1mM) came out at 0.985 ± 0.067 and the NP40-soluble protein abundance (concentration: 0.5mM) was 0.96 ± 0.094.

Turning to UniProt Q96RS0 and related entries, the NP40-soluble protein abundance was found to be 0.9645 ± 0.0035 (concentration: 0.1mM) and 0.995 ± 0.046 (concentration: 0.5mM).

With TRMT61B (UniProt Q9BVS5), the NP40-soluble protein abundance (concentration: 0.1mM) is 0.995 ± 0.018 and the NP40-soluble protein abundance (concentration: 0.5mM) amounted to 1.01 ± 0.04.

On to UniProt Q96RT1 and related entries, for which the NP40-soluble protein abundance is, setting by setting: (concentration: 0.1mM) 0.998 ± 0.04; (concentration: 0.5mM) 0.983 ± 0.042.

For UniProt Q9BTL3, the NP40-soluble protein abundance worked out at 1.01 ± 0.053 (concentration: 0.1mM) and 0.972 ± 0.022 (concentration: 0.5mM).

Take TIPIN (UniProt Q9BVW5): the NP40-soluble protein abundance by setting is: (concentration: 0.1mM) 0.946 ± 0.048; (concentration: 0.5mM) 0.952 ± 0.032.
